# Measurements: paper doi:10.1101/2023.06.19.545549
# Sequences of proteins named here, by UniProt entry; tags and fusion partners are left off.
# UniProt P95334: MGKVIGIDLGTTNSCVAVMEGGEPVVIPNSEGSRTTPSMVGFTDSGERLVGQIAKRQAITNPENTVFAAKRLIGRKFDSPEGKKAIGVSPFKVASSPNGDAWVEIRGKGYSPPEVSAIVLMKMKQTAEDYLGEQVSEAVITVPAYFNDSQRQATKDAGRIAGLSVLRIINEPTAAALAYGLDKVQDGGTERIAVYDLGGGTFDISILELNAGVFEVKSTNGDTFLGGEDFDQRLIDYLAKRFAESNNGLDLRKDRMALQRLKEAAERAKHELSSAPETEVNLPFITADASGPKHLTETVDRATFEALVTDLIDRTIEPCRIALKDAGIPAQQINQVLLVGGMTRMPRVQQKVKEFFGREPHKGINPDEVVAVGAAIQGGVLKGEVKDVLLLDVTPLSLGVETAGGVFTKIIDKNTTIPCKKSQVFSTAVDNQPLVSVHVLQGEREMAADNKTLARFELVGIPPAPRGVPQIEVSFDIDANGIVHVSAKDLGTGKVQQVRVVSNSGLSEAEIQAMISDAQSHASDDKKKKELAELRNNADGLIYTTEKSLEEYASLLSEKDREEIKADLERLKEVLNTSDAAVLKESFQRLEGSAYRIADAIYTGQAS
# Results are given in words; binding and its absence hold for the method and conditions named. In cells and extracts the contact can be indirect. These calls come from enrichment with a bait or labelling near it, and not all partners need be listed.
# B1: MXAN_6672 (protein, UniProt P95333 1-255)
# chain: MTVIEVEASGPSTPVEAEASASPADTTSPPSDAEATPSEDVAALRQEVESLKAQLEFSQAKGRETMERLREAHERAKEAQERTVRHAADLENYRKRAQKEKEEVQRFGSEKLLKDLLPVMDNLDRAIDAAAKSPDLDSFEKGVAMTRKSFEDALGRHGVKGFSAKGQVFDPRVHEAIQQVETADVPAGHVAYEVVRGFYLNERLVRPAMVVVARAPAEPVAAAEPPAVAEPATATTDTEAPAAPAQSENSSGGSQ
# Assays:
# [1] = target: MxDnaK1 (MXAN_3192) (Myxococcus xanthus DK1622 (endogenous in DK1622)); experiment: affinity purification with mass spectrometry
# [2] = target: MxDnaK2 (MXAN_6671) (Myxococcus xanthus DK1622 (endogenous in DK1622)) (UniProt P95334); experiment: affinity purification with mass spectrometry
binder,measurement,setting,value
B1,binding,[1],binds
same,binding,[2],binds
